# Experimental data: PubChem BioAssay AID624297 (National Center for Advancing Translational Sciences (NCATS), 2012)
# Among all 340,000 compounds or so, about 6,200 (1.8%) were called active. Inconclusive means that the source gave no clear call. Such entries were picked first, then a sample of the others. Calls come from the whole dose curve; as a rule, active = well fitted activation curve with a large enough effect; inconclusive = small, poorly fitted or top-dose-only effect; inactive = no such curve, though single readings can be large or run the other way. Where the call is inconclusive, the potency comes from a doubtful curve fit.
# Assay: A quantitative high throughput screen for small molecules that induce DNA re-replication in SW480 colon adenocarcinoma cells. For re-replication activation: % of control where 0% means no effect. Note: nearly all actives have a fitted effect of over 55% in size.
# Settings: Hoechst DNA content imaging, 48 h; re-replication activation: at 46.1 µM (top of the series)
# In short: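 DNA re-replication was detected as more nuclei of elevated Hoechst intensity after 48 hr exposure to compound (23 nL pinned per well of 250 cells).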
# Potency is the fitted concentration of half-maximal effect.
SMILES,Potency,re-replication activation
Cc1ccc(-c2cc3nc(-c4ccccc4)cc(N4CCC5(CC4)OCCO5)n3n2)cc1,active: 18.4 µM,–
Fc1ccccc1COc1cccc(/C=N/n2cnnc2)c1,–,inactive: -3.23%
CCOC(=O)C1=C(c2ccccc2)Nc2ncnn2C1c1ccc(C(=O)O)cc1 (centres undefined),–,inactive: -15.4%
O=Nc1c(O)n(Cc2ccc(Cl)c(Cl)c2)c2ccccc12,–,inactive: -2.35%
COc1ccc(-c2cnc(N)nc2-c2ccc(OC)cc2)cc1,"inconclusive: 29.1 µM [activator, partial curve, poor fit]",–
CC(Oc1ccccc1F)C(=O)NNC(=O)c1ccc(-n2cncn2)c([N+](=O)[O-])c1 (centres undefined),"inconclusive: 20.6 µM [activator, single point]",–
Nc1cccc2[nH]c(=O)c3ccccc3c12,–,inactive: 15.1%
N=c1oc2ccccc2cc1C(=O)Nc1ccc(F)cc1,–,inactive: 0.549%
O=C1C(Cl)=C(N2CCOCC2)C(=O)N1c1cccc(C(F)(F)F)c1,–,inactive: -1.16%
COc1ccc(C(=O)NC2CC(C)(C)Cc3c2cnn3-c2ccccc2C)c(OC)c1OC (centres undefined),–,inactive: 15.8%
COc1ccc(CN(C2CC2)S(=O)(=O)c2ccccc2Br)cc1,"inconclusive: 23.1 µM [activator, partial curve, poor fit]",–
CCCCCCN1CC(=O)N2Cc3[nH]c4ccccc4c3C[C@H]2C1=O,–,inactive: 5.85%
CC1CCCCN1S(=O)(=O)c1ccc(C(=O)Nc2nnc(C3CC3)o2)cc1 (centres undefined),"inconclusive: 29.1 µM [activator, single point]",–
CCCNc1nc(N2CCCC2)nc(N2CCCC2)n1,"inconclusive: 32.6 µM [activator, partial curve, poor fit]",–
CCCS(=O)(=O)N1CCN(Cc2c[nH]c3ccccc23)CC1,"inconclusive: 20.6 µM [activator, single point]",–
Cc1csc(NC(=O)c2cccs2)n1,–,inactive: -10.9%
Cc1ccc(C)c(N2CCN(C(=O)CCS(=O)(=O)c3ccc4c(c3)CCN4C(=O)C3CC3)CC2)c1,–,inactive: -35.1%
CCCCc1nc2cc(C(=O)N3CCCCC3CCO)ccc2o1 (centres undefined),"inconclusive: 29.1 µM [activator, single point]",–
CC1=C(C(=O)OCc2ccccc2)C(c2ccc(C(F)(F)F)cc2)NC(=O)N1CCCCCC(=O)O (centres undefined),"inconclusive: 6.51 µM [activator, single point]",–
COc1cc([N+](=O)[O-])ccc1NC(=S)NCc1ccccn1,–,inactive: -1.58%
CC(C)(C)NS(=O)(=O)c1ccc(NC(=S)NC(=O)C2CC2)cc1,"inconclusive: 3.26 µM [activator, partial curve, poor fit]",–
COC(=O)CNC(=O)CSc1nc2c(sc(=S)n2-c2ccccc2)c(=O)[nH]1,"inconclusive: 22.4 µM [activator, partial curve, poor fit]",–
Cc1nc(C(=O)O)cc2c1[nH]c1ccccc12,"inconclusive: 3.26 µM [activator, partial curve, poor fit]",–

SMILES,Potency,re-replication activation
CCOc1ccc(CCNC(=O)CSc2nnnn2C)cc1OCC,–,inactive: 0.982%
O=C(Nc1nc(-c2ccccn2)cs1)c1cc(Cl)ccc1[N+](=O)[O-],"inconclusive: 14.6 µM [activator, single point]",–
CC(C)Oc1ccc(CSc2nnc3n(C)c(=O)c4c5c(sc4n23)CCCC5)cc1,"inconclusive: 0.0052 µM [activator, full curve, poor fit]",–
CCN(C(=O)COC(=O)c1ccccc1Cc1ccccc1)C1CCS(=O)(=O)C1 (centres undefined),"inconclusive: 29.1 µM [activator, single point]",–
COc1ccc(-n2cnc3cc(NS(=O)(=O)c4ccccc4)ccc32)cc1,"inconclusive: 29.1 µM [activator, partial curve, poor fit]",–
Cc1nc(N2CCN(Cc3ccc4c(c3)OCO4)CC2)c2cc(-c3ccccc3)sc2n1,"inconclusive: 29.1 µM [activator, single point]",–
N=c1c(C(=O)NCc2ccccc2)cc2c(=O)n3ccccc3nc2n1Cc1ccco1,active: 15.8 µM,–
CSc1nc(N(C)NC(=O)c2ccc(F)cc2)c2ccccc2n1,active: 2.31 µM,–
CC(C)(C)C(=O)Nc1cccc(-c2cc(-c3c(Cl)cccc3Cl)no2)c1,"inconclusive: 29.1 µM [activator, single point]",–
Cc1oc(-c2ccccc2Cl)[n+]([O-])c1C,"inconclusive: 29.1 µM [activator, single point]",–
COC(=O)c1ccccc1NC(=O)c1cc[n+](C)cc1,"inconclusive: 2.59 µM [activator, partial curve, poor fit]",–
Cc1cc(Cl)ccc1C(=O)C1CCCN(C(=O)c2cccc(N3CCCC3=O)c2)C1 (centres undefined),–,inactive: -0.553%
COc1cccc(CN2CC(C(=O)N3CCCO3)CCC2=O)c1 (centres undefined),–,inactive: 27%
COc1ccc(C(C)NC(=O)C2C(=O)NC3(C)CC2c2ccccc2O3)cc1 (centres undefined),"inconclusive: 29.1 µM [activator, single point]",–
COCc1cc(=O)[nH]c(Nc2nc(C)c3ccccc3n2)n1,"inconclusive: 18.4 µM [activator, partial curve, poor fit]",–
Cc1ccc(-c2nc(Nc3ccc(O)cc3)c3ccccc3n2)cc1,"inconclusive: 18.4 µM [activator, single point]",–
COc1ccc(CNc2ccc(C(=O)O)cc2)cc1,"inconclusive: 29.1 µM [activator, single point]",–
CCN(c1ccccc1)S(=O)(=O)c1ccc(N2CCN(c3ccc(O)cc3)CC2)nc1,"inconclusive: 18.4 µM [activator, single point]",–
COc1cc2[nH]c(C(=O)N3CCc4ccccc4C3)cc2c(OC)c1OC,"inconclusive: 1.12 µM [activator, full curve]",–
O=C(NC1CCCN(c2ccc(C(F)(F)F)cn2)C1)c1cc(Cl)ccc1F (centres undefined),"inconclusive: 32.6 µM [activator, single point]",–
COCCCN=C(c1ccco1)n1c(=S)nc(-c2ccco2)n(CCCOC)c1=S,–,inactive: 0.224%
COc1cccc(/C=C2\SC(=S)N(CCCC(=O)N3CCCCC3)C2=O)c1,"inconclusive: 29.1 µM [activator, single point]",–
OCCNc1cnc2ccccc2n1,"inconclusive: 23.1 µM [activator, partial curve, poor fit]",–

# Grouped by structure: those above containing a furan ring, fused or not (2)
SMILES,Potency,re-replication activation
N=c1c(C(=O)NCc2ccccc2)cc2c(=O)n3ccccc3nc2n1Cc1ccco1,active: 15.8 µM,–
COCCCN=C(c1ccco1)n1c(=S)nc(-c2ccco2)n(CCCOC)c1=S,–,inactive: 0.224%

# Further results:

SMILES,Potency,re-replication activation
FC(F)(F)c1cc(-c2cccs2)nc2cc(-c3cccs3)nn12,"inconclusive: 0.58 µM [activator, full curve, poor fit]",–
Cc1noc(C)c1C(=O)OCC(=O)N(C)C1(C#N)CCCCC1,"inconclusive: 0.082 µM [activator, full curve, poor fit]",–
COc1ccccc1N1CCN(CCCCN2C(=O)C3CCCN3C2=O)CC1 (centres undefined),–,inactive: -4.13%
Cc1onc(-c2ccccc2)c1C(=O)Nc1nc2c(s1)C(=O)CC(C)(C)C2,–,inactive: -2.83%
CCn1c(-c2cc(-c3ccccc3OC)nc3ccccc23)n[nH]c1=S,"inconclusive: 25.9 µM [activator, partial curve, poor fit]",–
CCC(C)NC(=O)Cn1nc([N+](=O)[O-])c(Cl)c1C (centres undefined),"inconclusive: 29.1 µM [activator, single point]",–
COc1ccc(C(=O)CSc2ccc(-c3ccccc3)nn2)cc1,–,inactive: -3.44%
Cc1ccc2nc(Cl)c3cc(C(=O)N(CCN(C)C)Cc4ccco4)sc3c2c1,"inconclusive: 18.4 µM [activator, single point]",–
Cc1ccc(CN2C(=O)C3CCCN3c3ncccc32)cc1 (centres undefined),"inconclusive: 29.1 µM [activator, partial curve, poor fit]",–
O=C(NCCCN1CCCC1)c1cc(Sc2ccc(F)cc2)nc2ccccc12,"inconclusive: 25.9 µM [activator, partial curve, poor fit]",–
Cc1ccc(NC(=O)CC2CCCC2)c(Br)c1,"inconclusive: 5.62 µM [activator, single point]",–
COc1ccccc1N1CCN(c2nc(C)nc3c2oc2ccccc23)CC1,"inconclusive: 3.55 µM [activator, full curve, poor fit]",–
COc1ccc(OC)c(S(=O)(=O)NC(C)CCc2ccccc2)c1 (centres undefined),"inconclusive: 4.61 µM [activator, partial curve, poor fit]",–
O=C(CCN1CCc2ccccc2C1)c1ccc2c(c1)OCCO2,active: 16.4 µM,–
Oc1ccc(CCNc2c3ccccc3nc3ccccc23)cc1O,"inconclusive: 1.84 µM [activator, partial curve]",–
COc1ccc(S(=O)(=O)N2c3ccccc3OCC2c2ccccc2)cc1 (centres undefined),active: 3.66 µM,–
O=C(NCc1ccccc1Cl)[C@@H]1CCCN1S(=O)(=O)c1ccc(Cl)cc1,"inconclusive: 8.2 µM [activator, partial curve, poor fit]",–
COc1ccccc1CCN=C(N)NS(=O)(=O)c1ccccc1F,–,inactive: -2.98%
CCOC(=O)N1CCN(S(=O)(=O)c2ccc(C(=O)N(CCCN(C)C)c3nc4ccc(Cl)cc4s3)cc2)CC1,"inconclusive: 29.1 µM [activator, single point]",–
Cc1c(C(=O)O)sc2nc3n(c(=O)c12)CCC3,"inconclusive: 29.1 µM [activator, single point]",–
Cc1ccc(/C=N/Nc2ccnc3cc(Cl)ccc23)c(C)c1,"inconclusive: 18.4 µM [activator, single point]",–
Cc1ccc2oc(C(=O)NC3CCS(=O)(=O)C3)cc(=O)c2c1 (centres undefined),active: 20.6 µM,–
COc1ccc(C2CC(c3ccccc3)=NN2C(=O)CSc2nnnn2-c2cccc(C)c2)cc1 (centres undefined),"inconclusive: 1.84 µM [activator, full curve, poor fit]",–
